A short description of this series: general procedure: solution-phase peptide synthesis; HATU/DIPEA; TSTU/DIPEA for NHS esters; diethylcyanophosphonate/DIPEA. Conditions: late stage modification step.

For cemadotin C5, the step yield entry is “(88%)”.

These data come from patent US11202837B2 (Antikor Biopharma Limited, priority 2014, dated 2021).
